Values quoted from earlier work as cited in US20110105387A1 (priority 2009, published 2011).

solubility in water: insoluble
Structure (SMILES): CO[C@H]1C[C@@H]2CC[C@@H](C)[C@@](O)(O2)C(=O)C(=O)N2CCCC[C@H]2C(=O)O[C@H]([C@H](C)C[C@@H]2CC[C@@H](O)[C@H](OC)C2)CC(=O)[C@H](C)/C=C(\C)[C@@H](O)[C@@H](OC)C(=O)[C@H](C)C[C@H](C)/C=C/C=C/C=C/1C [rapamycin]
